Laboratory results from patent publication US8349215B2, “Corrosion inhibitors having increased biological degradability and minimized toxicity” (Clariant Finance (BVI) Limited, priority 2008, dated 2013).

Legend:
[1] = Shell wheel test (corrosion inhibition); conditions: saltwater/petroleum mixture, pH 3.5, 70° C., 24 hours, 40 rpm; 50 ppm of a 40% solution of the inhibitor; mass decrease vs blank
[2] = LPR test (test conditions analogous to ASTM D 2776)

**Q.** For CCCCCCCC/C=C\CCCCCCCCN1CC(C(=O)O)CC1=O (centres unmarked) [Comparative 2, N-oleyl-5-oxopyrrolidine-3-carboxylic acid, reference compound], which Ø % protection [1] is on record?
**A.** 60%

**Q.** And the “Protection after 10 min” value [2]?
**A.** 2%

**Q.** What about the “Protection after 30 min” value [2] of the same compound?
**A.** 10%

**Q.** What about the “Protection after 60 min” value [2] of the same compound?
**A.** 23%

**Q.** For CCCCCCCC/C=C\CCCCCCCCN.CCCCCCCC/C=C\CCCCCCCCN1CC(C(=O)O)CC1=O (centres unmarked) [Comparative 3, N-oleyl-5-oxopyrrolidine-3-carboxylic acid, salt with oleylamine, reference compound], which Ø % protection [1] is on record?
**A.** 55%

**Q.** And the “Protection after 10 min” value [2]?
**A.** 1%

**Q.** And the “Protection after 30 min” value [2]?
**A.** 8%

**Q.** And the “Protection after 60 min” value [2]?
**A.** 17%

**Q.** With CCCCN1CC(C(=O)O)CC1=O.CCCCNCCCC (centres unmarked) [Comparative 4, N-butyl-5-oxopyrrolidine-3-carboxylic acid, salt with dibutylamine, reference compound] as the compound, how does the Ø % protection [1] read?
**A.** 21%

**Q.** And the “Protection after 10 min” value [2]?
**A.** 4%

**Q.** And the “Protection after 30 min” value [2]?
**A.** 12%

**Q.** What about the “Protection after 60 min” value [2] of the same compound?
**A.** 25%

**Q.** Which Ø % protection [1] does the source give for CCCCCCCCN1CC(C(=O)O)CC1=O.NCCO (centres unmarked) [Compound from example 1, N-octyl-5-oxopyrrolidine-3-carboxylic acid monoethanolammonium salt] here?
**A.** 73%

**Q.** And the “Protection after 10 min” value [2]?
**A.** 65%

**Q.** What about the “Protection after 30 min” value [2] of the same compound?
**A.** 79%

**Q.** And the “Protection after 60 min” value [2]?
**A.** 86%

**Q.** With CCCCCCCCN1CC(C(=O)O)CC1=O.OCCN(CCO)CCO (centres unmarked) [Compound from example 2, N-octyl-5-oxopyrrolidine-3-carboxylic acid triethanolammonium salt] as the compound, how does the Ø % protection [1] read?
**A.** 69%

**Q.** What about the “Protection after 10 min” value [2] of the same compound?
**A.** 59%

**Q.** And the “Protection after 30 min” value [2]?
**A.** 76%

**Q.** What about the “Protection after 60 min” value [2] of the same compound?
**A.** 81%

**Q.** With CCCCCCCC/C=C\CCCCCCCCN1CC(C(=O)O)CC1=O.NCCO (centres unmarked) [Compound from example 5, N-oleyl-5-oxopyrrolidine-3-carboxylic acid monoethanolammonium salt] as the compound, how does the Ø % protection [1] read?
**A.** 90%

**Q.** What about the “Protection after 10 min” value [2] of the same compound?
**A.** 91%

**Q.** And the “Protection after 30 min” value [2]?
**A.** 95%

**Q.** And the “Protection after 60 min” value [2]?
**A.** 99%

**Q.** Which Ø % protection [1] does the source give for “N-cocoyl-5-oxopyrrolidine-3-carboxylic acid N,N-diethyl-(2-hydroxyethyl) ammonium salt [Compound from example 3]” here?
**A.** 90%

**Q.** And the “Protection after 10 min” value [2]?
**A.** 91%

**Q.** What about the “Protection after 30 min” value [2] of the same compound?
**A.** 96%

**Q.** What about the “Protection after 60 min” value [2] of the same compound?
**A.** 99%

**Q.** For “N-oleyl-5-oxopyrrolidine-3-carboxylic acid 2-(2-hydroxyethoxy)ethylammonium salt [Compound from example 4]”, which Ø % protection [1] is on record?
**A.** 89%

**Q.** What about the “Protection after 10 min” value [2] of the same compound?
**A.** 90%

**Q.** What about the “Protection after 30 min” value [2] of the same compound?
**A.** 96%

**Q.** And the “Protection after 60 min” value [2]?
**A.** 99%
